Values from PubChem BioAssay AID1259254 (NCATS, 2017).

Purpose: 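Genome-wide screen for genes that prevent DNA re-replication in cancer cells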 (primary screen)
System: human HCT116 colorectal cancer cells
Reagents: single siRNA against human genes
Duration: 3 days
Measurement: 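Imaged Hoechst DNA stain sorts each cell into a cycle phase by DNA amount; per plate, G2 fraction set to 0% for non-targeting and 100% for GMNN siRNA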
Reading the numbers: G2 robust z-score and G2 cells, % of GMNN control: higher = more G2 cells, more excess DNA replication; raw share of cells in G2: higher = larger share of cells with G2 DNA content
Active means: 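Active siRNAs have a G2 robust z of 5 or more median absolute deviations over the median, which in these data means about 38% or higher of GMNN control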
The deposit covers about 59,000 reagents; this is a random part of them. Of all reagents, about 1,550 (2.6%) were called active. 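G2 share is only a proxy for re-replication; each gene was hit by three separate siRNAs, and active genes were retested.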 The raw values are shown without normalisation. The numbers tell different reagents against one gene apart. Not given: the amount of reagent.

The first 3 records as a preview:
Target gene,reagent,G2 robust z-score,"G2 cells, % of GMNN control",raw share of cells in G2 (%),activity call
SH2D1A,1,-0.467,-0.32,4.84,inactive
SH2D1A,2,1.46,13.2,9.45,inactive
SH2D1A,3,-0.709,-2.02,2.62,inactive

The listing, repeating the preview:
Target gene,reagent,G2 robust z-score,"G2 cells, % of GMNN control",raw share of cells in G2 (%),activity call
SH2D1A,1,-0.467,-0.32,4.84,inactive
SH2D1A,2,1.46,13.2,9.45,inactive
SH2D1A,3,-0.709,-2.02,2.62,inactive
TSC22D3,1,-0.469,-0.331,3.33,inactive
TSC22D3,2,0.834,8.84,8.98,inactive
TSC22D3,3,2.8,22.6,11.3,inactive
FAM201B,1,4.34,33.5,15.5,inactive
FAM201B,2,0.389,5.71,5.76,inactive
FAM201B,3,1.1,10.7,8.49,inactive
LOC646736,1,-0.868,-3.14,2.59,inactive
LOC646736,2,-0.11,2.19,4.04,inactive
LOC646736,3,-1.11,-4.85,1.5,inactive
WASF3,1,2.08,17.6,11.9,inactive
WASF3,2,0.24,4.65,6.06,inactive
WASF3,3,0.233,4.61,4.9,inactive
TRE17 (retired record),1,0.093,3.62,5.02,inactive
TRE17 (retired record),2,-0.881,-3.23,2.19,inactive
TRE17 (retired record),3,-0.453,-0.216,3.05,inactive
MIEF1,1,-0.0161,2.85,4.62,inactive
MIEF1,2,1.09,10.6,8.74,inactive
MIEF1,3,1.73,15.1,8.19,inactive
NATD1,1,0.664,7.64,6.35,inactive
NATD1,2,0.252,4.74,4.75,inactive
NATD1,3,0.981,9.87,6.34,inactive
GPR119,1,-1.21,-5.55,3.86,inactive
GPR119,2,0.12,3.81,5.85,inactive
GPR119,3,0.314,5.18,4.86,inactive
TUBBP2,1,-0.014,2.87,3.95,inactive
TUBBP2,2,2.74,22.2,12.2,inactive
TUBBP2,3,2.19,18.4,10,inactive
